Laboratory results as given in patent US11033572B2, “Molecular adjuvants for enhanced cytosolic delivery of active agents” (Universiteit Gent, priority 2017, dated 2021).

Experiments:
Type in all cases: cell-based
[1] = test system: H1299_eGFP cells; assay: Cell viability following CAD incubation (CellTiter GLO); settings: human, 20 h
Experimental: The silencing potential of siPLK1-NGs was established through evaluating the cell viability. Hereto, we applied the CellTiter GLO® assay (Promega, Belgium) according to the manufacturer's guidelines. Before initiating the assay, the culture plates and reconstituted assay buffer were placed at room temperature for 30 minutes. Next, the culture medium was replaced by 250 μL fresh cell medium and an equal volume of assay buffer was added. To induce complete cell lysis, the plates were shaken during 2 minutes and the signal was allowed to stabilize the following 10 minutes. 100 μL from each well was subsequently transferred to an opaque 96-well plate, which was measured with a GloMax® 96 Microplate Luminometer (Promega, Belgium). Three biological replicates were performed and data are expressed as the mean cell viability±SEM.
The H1299_eGFP cells were seeded, transfected and treated with the CADs similar to the silencing experiments. Please note that we only applied siCTRL-loaded NGs in this set of experiments. With the interest of evaluating the possible effect of our treatment on cell viability, the CellTiter GLO® assay was performed as described above. Again, three biological replicates were performed and data are expressed as the mean±SEM.

[2] = test system: H1299_eGFP cells; assay: siNG transfection and sequential adjuvant treatment, eGFP silencing by flow cytometry; settings: multiple 2 h treatments, stabilized siRNA, 9 days
[3] = test system: H1299_WT cells; assay: Cholesterol detection with filipin; settings: after siNG transfection
Experimental: Following H1299_WT cell seeding, transfection and DL treatment, the cells were washed once with PBS and fixed with 4% PFA during 1 hour. After washing the samples with PBS, the remaining PFA was quenched with a 1.5 mg/mL glycine solution in PBS during 10 minutes. Next, a 0.1 mg/mL filipin solution in PBS containing 10% FBS was applied for 2 hours. Afterwards, the cells were washed once with PBS containing FBS, once with PBS and finally stored at 4° C. in Vectashield without DAPI (Vector Laboratories, USA). All steps of this labeling procedure were executed at room temperature. The samples were imaged with a LSCM and a 100× oil immersion objective following excitation with the 408 nm laser line.

Clc1ccc2c(c1)CCc1cccnc1C2=C1CCNCC1 [(3) Desloratadine, Desloratadine]
concentration with significant additional cytotoxicity compared to siNGs alone [1]: 40 µM
kinetics of eGFP silencing [2]: maintain the eGFP silencing over a prolonged period of time
cholesterol (filipin) signal area relative to total cell area [3]: an increase in the signal area relative to the total cell area
